In all, about 3,200 compounds were measured (“TSA(with NAD+) / Primary screening (TSA) / delta Tm (K)”: median about -0.04, highest 2% from about 0.37 on). Some of the results follow.
Target: NAD-dependent deacetylase Sirtuin 1 (human, UniProt Q96EB6)
Test: primary screen, delta tm
Design: single well (n = 1, as 'the same TSA')
Settings: 10 µM

Sequences of proteins named here, by UniProt entry; tags and fusion partners are left off. Residues count along the entry.
UniProt Q96EB6, 2-747 limits assumed: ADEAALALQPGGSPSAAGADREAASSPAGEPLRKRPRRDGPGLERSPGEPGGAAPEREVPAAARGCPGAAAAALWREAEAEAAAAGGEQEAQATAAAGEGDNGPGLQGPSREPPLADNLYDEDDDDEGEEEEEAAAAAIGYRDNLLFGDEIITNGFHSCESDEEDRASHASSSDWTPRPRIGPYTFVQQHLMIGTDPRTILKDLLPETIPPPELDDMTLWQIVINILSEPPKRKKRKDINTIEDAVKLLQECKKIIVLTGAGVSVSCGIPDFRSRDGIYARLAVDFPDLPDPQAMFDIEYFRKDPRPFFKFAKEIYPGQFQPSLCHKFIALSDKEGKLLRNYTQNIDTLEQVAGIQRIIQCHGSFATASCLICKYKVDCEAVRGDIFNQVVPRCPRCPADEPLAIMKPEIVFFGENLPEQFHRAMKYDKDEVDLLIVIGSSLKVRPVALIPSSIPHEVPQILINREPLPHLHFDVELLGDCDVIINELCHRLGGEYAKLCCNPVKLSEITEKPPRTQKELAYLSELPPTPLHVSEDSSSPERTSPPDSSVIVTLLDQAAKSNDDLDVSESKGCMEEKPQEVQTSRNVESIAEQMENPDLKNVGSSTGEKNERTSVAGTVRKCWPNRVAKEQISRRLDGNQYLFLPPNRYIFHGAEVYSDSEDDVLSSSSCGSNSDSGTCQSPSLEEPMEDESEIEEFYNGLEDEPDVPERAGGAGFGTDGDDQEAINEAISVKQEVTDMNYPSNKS

Structure (SMILES) | TSA(with NAD+) / Primary screening (TSA) / delta Tm (K)
Cc1nc2ccccc2c(=O)n1CC(=O)O | -0.03
COc1ccc(C2C(C(=O)/C=C/c3ccco3)=C(O)C(=O)N2CCCN2CCOCC2)cc1 (stereo not drawn) | -0.14
CC(NC(=O)c1ccccc1NC(=O)COC(=O)C12CC3CC(CC(O)(C3)C1)C2)c1ccccc1 (stereo not drawn) | 0.05
Cc1nc(S)sc1CC(=O)NCC1CCCS1(=O)=O (stereo not drawn) | -0.01
CC(OC(=O)CNC(=O)C12CC3CC(CC(C3)C1)C2)C(=O)Nc1ccccc1-c1ccccc1 (stereo not drawn) | -0.01
CC12CCC(C/C1=N/N=C1/CC3CCC1(C)C3(C)C)C2(C)C | -0.29
O=C(Nc1ccccc1Oc1ccccc1)c1cccc([N+](=O)[O-])c1 | -0.03
Cc1csc2c(NC3(CO)CCCC3)ncnc12 | -0.06
CCOc1ccc(C2C(C(=O)c3ccc(OC)cc3)=C(O)C(=O)N2CCCN2CCOCC2)cc1 (stereo not drawn) | -0.05
Cc1ccc(N(C)S(=O)(=O)c2cccc(C(=O)Nc3sccc3C(N)=O)c2)cc1 | 0.26
COc1cccc(NC(=O)COc2ccc(C(=O)OCC(=O)NCCC3=CCCCC3)cc2)c1 | -0.14
COc1ccc(C(N)=O)cc1NC(=O)c1ccccc1-c1nc(C(C)C)no1 | -0.23
O=C1COc2ccc(C(=O)CSc3nc(-c4ccccc4)c(-c4ccccc4)o3)cc2N1 | 0.01
O=c1c2ccncc2ncn1CC(O)c1cccc(F)c1 (stereo not drawn) | -0.11
N#Cc1ccc(CN2CCN(CC(=O)Nc3cc(Cl)ccc3-n3cncn3)CC2)cc1 | 0.08
Cc1ccc(CN(CCc2ccccc2)C(=O)Cc2c(C)nc(-c3ccccn3)[nH]c2=O)s1 | 0.12
C=Cn1c(N)c(C(=O)OCC)sc1=S | -0.21
O=C(CCc1c[nH]c2ccccc12)N1CCCC(c2nc3ccccc3[nH]2)C1 (stereo not drawn) | 0.05
Cc1ccc(N(C)S(=O)(=O)c2cccc(C(=O)OCc3cc(=O)oc4c(C)c(C)ccc34)c2)cc1 | -0.11
O=C(C1=C(O)C(=O)N(CCN2CCOCC2)C1c1ccco1)c1ccco1 (stereo not drawn) | -0.11
COc1ccc(-n2ccc(C(=O)Nc3ccc4nc[nH]c(=O)c4c3)n2)cc1 | -0.05
C=CCNC(=O)c1ccc(NC(=O)N2CCC(C(=O)Nc3ccccc3OC)CC2)cc1 | -0.03
CC(C)Oc1ccc(S(=O)(=O)N2CCOCC2)cc1NC(=O)C1=COCCO1 | -0.06

Structure (SMILES) | TSA(with NAD+) / Primary screening (TSA) / delta Tm (K)
NC(=O)c1ccccc1OCc1cccc(COc2ccccc2C(N)=O)c1 | -0.05
CCOc1ccc(S(=O)(=O)N(CC(=O)NC23CC4CC(CC(C4)C2)C3)Cc2ccccc2)cc1 | -0.01
Cc1ccc(/C=C/S(=O)(=O)NCC(=O)Nc2ccccc2Cc2ccccc2)cc1 | -0.09
COC(=O)c1sc2cccc(F)c2c1CNC(=O)Cn1cnnn1 | -0.01
CC(Oc1ccc(C#N)cc1)C(=O)NC(C)c1ccc2ccccc2c1 (stereo not drawn) | -0.02
COc1ccc(C(=O)C(C)OC(=O)c2c(C)noc2C)cc1 (stereo not drawn) | -0.04
CC(=O)C(C)N (stereo not drawn) | -0.14
Cc1ccc(NC=C2C(=O)NC(=S)NC2=O)cc1 | -0.19
COC(=O)c1cc2c(C)nn(-c3ccc(F)cc3)c2s1 | 0.07
COc1ncnc2c1CN(C(C)C(=O)N1CCc3ccccc31)CC2 (stereo not drawn) | 0.01
CCOc1nc2cc(C(=O)OCCC3CCCCN3C(=O)c3cccn3C)ccc2[nH]1 (stereo not drawn) | -0.09
Cc1ccc(C)c(CSCc2nc3ccsc3c(=O)[nH]2)c1 | -0.23
O=C(O)c1c2ccccc2cc2ccccc12 | -0.11
Cc1nc2ccc(C(=O)NC(Cc3ccccc3)C(N)=O)cc2nc1C (stereo not drawn) | -0.14
O=C(Nc1ccc(N2CCCCC2)cc1)c1cc(Cl)nc2ccccc12 | 0.01
O=C(Nc1cccc(S(=O)(=O)NCc2ccco2)c1)c1ccccc1OCc1ccccc1 | 0.11
Cc1cccc([N+](=O)[O-])c1N | 0.05
COc1ccc(N(C)S(=O)(=O)c2cccc(C(=O)Nc3cccc4ccccc34)c2)cc1 | -0.09
CCCc1noc(CSc2nccn2Cc2ccccn2)n1 | -0.04
Cc1cc(C)c(CCNC(=O)NC2CCCNC2=O)c(C)c1 (stereo not drawn) | -0.06
CC(C)Oc1ccc(-c2nc(C(=O)OC3CCCN(Cc4ncccn4)C3)cs2)cc1 (stereo not drawn) | 0.03
COc1cc(NC(=O)c2cccs2)c(C(=O)OCC(=O)NC23CC4CC(CC(C4)C2)C3)cc1OC | 0.03
COc1ccc(C2CNC(c3ccccc3)c3[nH]c4ccccc4c32)cc1 (stereo not drawn) | -0.21

Three neighbouring compounds from above:
Structure (SMILES) | TSA(with NAD+) / Primary screening (TSA) / delta Tm (K)
Cc1ccc(NC=C2C(=O)NC(=S)NC2=O)cc1 | -0.19
COC(=O)c1cc2c(C)nn(-c3ccc(F)cc3)c2s1 | 0.07
COc1ncnc2c1CN(C(C)C(=O)N1CCc3ccccc31)CC2 (stereo not drawn) | 0.01

The results go on.

Structure (SMILES) | TSA(with NAD+) / Primary screening (TSA) / delta Tm (K)
COc1ccc(/C=C/C(=O)NCCn2c(C)nc3ccccc32)cc1 | -0.21
O=C(Nc1ccc2[nH]c(=O)[nH]c2c1)C1c2ccccc2Oc2ccccc21 | 0.07
Cc1nc(CSc2ccccc2C(=O)NCc2ccc(Cn3ccnc3)cc2)no1 | -0.05
CCCOc1ccc(C(=O)C2=C(O)C(=O)N(CCN3CCOCC3)C2c2ccccn2)cc1 (stereo not drawn) | -0.02
Cc1ccc(-c2nn(-c3ccccc3)cc2C=C2C(=O)NC(=S)NC2=O)o1 | 0.18
COc1ccc(Br)cc1C=C1C(=O)c2ccccc2C1=O | -0.13
Cc1c(C=C2C(=O)NC(=S)NC2=O)c2ccccn2c1C(=O)c1cccc([N+](=O)[O-])c1 | -0.03
O=C(O)CCc1ccc(S(=O)(=O)Nc2ccc3[nH]c(-c4ccc(F)cc4)nc3c2)cc1 | 0.01
Cc1ccc(-c2csc3ncn(CC(=O)NCC(=O)Nc4ccc(F)c(F)c4F)c(=O)c23)s1 | 0.01
COc1cccc(/C=N/c2ccc(C)cc2)c1OC | -0.01
O=C(C1CCCc2ccccc21)N1CCCC(c2nc3ccccc3o2)C1 (stereo not drawn) | -0.08
O=c1onc(-c2cnccn2)n1Cc1nc2cc([N+](=O)[O-])ccc2o1 | 0.02
Cc1ccnc(NC(=O)C2CCN(c3ncnc4scc(-c5ccc(F)cc5)c34)CC2)c1 | -0.05
C=CCn1c(SCC(=O)Nc2ccc(C(N)=O)cc2)nnc1-c1ccncc1 | 0.07
CCC(C)(C)C(=O)N1CCc2cnccc21 | -0.01
Cc1cc(C(=O)COC(=O)C23CC4CC(CC(Cl)(C4)C2)C3)c(C)n1Cc1ccc2c(c1)OCO2 | -0.03
COC(OC)C(C)N (stereo not drawn) | 0.11
Cc1c(C)n(-c2ccc(Cl)cc2)c2ncnc(N)c12 | -0.11
COc1cc(CN(C)C(=O)c2ccc(CNC(N)=O)cc2)ccc1OCc1ccccc1 | -0.03
Cc1nc2c3ccccc3nc(SCc3nc(N)nc(Nc4ccc(F)cc4)n3)n2n1 | 0.22
CC1CC1CN (stereo not drawn) | -0.09
O=C(COc1ncnc2sc3c(c12)CCCC3)N1CCc2ccccc21 | 0.26
CC1(C)NC(=O)N(CC(=O)Nc2sc3c(c2-c2nc4ccccc4[nH]2)CCCC3)C1=O | 0.37

Structure (SMILES) | TSA(with NAD+) / Primary screening (TSA) / delta Tm (K)
Cc1ccc(N(C)S(=O)(=O)c2cccc(C(=O)Nc3cccc(C#N)c3)c2)cc1 | 0.28
CC1CCC/C(=N/NC(=O)c2ccc(Cn3nnc(-c4ccccc4)n3)cc2)C1 (stereo not drawn) | 0.05
Cc1ccc(N(C)S(=O)(=O)c2cccc(C(=O)OC3CCOC3=O)c2)cc1 (stereo not drawn) | 0.18
CNC(=O)COc1cc(F)ccc1F | 0.01
Cc1cc(C(=O)COC(=O)C23CC4CC(CC(O)(C4)C2)C3)c(C)n1-c1cccc(S(=O)(=O)N2CCOCC2)c1 | 0.01
NC(=O)C1CCN(c2ncnc3c2c(-c2ccccc2)cn3-c2cccc(C(F)(F)F)c2)CC1 | -0.02
CNC(=O)CCNc1ccc2nnc(C(F)(F)F)n2n1 | 0.08
CCOC(=O)/C=C/C(=O)OCC(=O)N1N=C2/C(=C\c3ccc(OC)cc3)CCCC2C1c1ccc(OC)cc1 (stereo not drawn) | 0.02
CSc1cccc(NC(=O)c2cccc(S(=O)(=O)N(C)c3ccc(C)cc3)c2)c1 | 0.19
N#Cc1ccc2[nH]c3c(c2c1)CCCC3 | 0.09
NC(=O)COC(=O)c1ccc(SCc2cn3ccccc3n2)cc1 | -0.19
CC(NCc1ccncc1)c1ccccc1 (stereo not drawn) | -0.13
CCC(N)COC (stereo not drawn) | -0.11
COc1cc(C(C)=O)ccc1COc1ccc(C(=O)OC(C)C(=O)NC23CC4CC(CC(C4)C2)C3)cc1OC (stereo not drawn) | 0.09
Fc1cccc2[nH]c(CSc3nccn3Cc3ccccn3)nc12 | -0.16
Cc1cc2ncn(CC(NC(=O)C3CC3c3cccnc3)C3CC3)c2cc1C (stereo not drawn) | 0.01
CCOc1cc(CN(C)C(C)C(=O)Nc2cc(C)no2)ccc1OC(F)F (stereo not drawn) | -0.09
COc1cc(CN(C)C(=O)c2cccc(S(C)(=O)=O)c2)ccc1OCc1ccccc1 | 0.08
c1ccc(-n2ncc3c(-n4ccnc4)ncnc32)cc1 | -0.11
OCC1(Nc2ncnc3ccsc23)CCC1 | -0.18
CCOC(=O)c1c(C2CC2)csc1NC(=O)COC(=O)C1CC(=O)N(c2ccccc2C(C)CC)C1 (stereo not drawn) | -0.25

Source: paper PMC6925144, “A prospective compound screening contest identified broader inhibitors for Sirtuin 1” (Scientific Reports, 2019)
